In experiment [1] the target is Telomere repeat binding protein 4 (TRB4), yeast two-hybrid fusion (A. thaliana) (UniProt F4I7L1). Put plainly: two-hybrid; Matchmaker GAL4-based system, S. cerevisiae PJ69-4a; growth on SD -Leu -Trp -His (with or without 1 mM or 3 mM 3-AT) or SD -Leu -Trp -Ade at 30 °C; empty vector as negative control.
For experiment [2], the target named is Telomere repeat binding protein 5 (TRB5), yeast two-hybrid fusion (A. thaliana). The experiment is described as above.
Experiment [3] concerns the target Telomere repeat binding protein 4 (TRB4), yeast two-hybrid fusion (A. thaliana) (UniProt F4I7L1). Described as above. This is another data set of the same source.
The target in experiment [4] is TRB4 (myc-tag), in vitro translated (A. thaliana) (UniProt F4I7L1). Put plainly: co-IP; in vitro translated proteins (TNT system): 35S-Met-labelled HA-tagged VRN2, EMF2 or POT1a mixed with myc-tagged TRB4 or TRB5, anti-myc antibody and Protein G magnetic particles; input, unbound and bound fractions on 10% SDS-PAGE.
Experiment [5] concerns the target TRB5 (myc-tag), in vitro translated (A. thaliana). The experiment is described as above.

Amino acid sequences for entries named in this document (tags omitted). A change or cut given only in a name is not applied to a line headed by its entry.
UniProt F4I7L1: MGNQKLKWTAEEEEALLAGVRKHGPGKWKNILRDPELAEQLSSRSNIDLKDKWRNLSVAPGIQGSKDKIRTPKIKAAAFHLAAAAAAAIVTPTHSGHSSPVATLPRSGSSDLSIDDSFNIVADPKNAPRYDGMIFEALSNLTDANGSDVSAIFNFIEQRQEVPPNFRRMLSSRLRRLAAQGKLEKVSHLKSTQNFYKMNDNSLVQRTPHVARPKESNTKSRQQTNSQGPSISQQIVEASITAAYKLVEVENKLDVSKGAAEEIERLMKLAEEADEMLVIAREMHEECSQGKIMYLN
UniProt Q9M9N3: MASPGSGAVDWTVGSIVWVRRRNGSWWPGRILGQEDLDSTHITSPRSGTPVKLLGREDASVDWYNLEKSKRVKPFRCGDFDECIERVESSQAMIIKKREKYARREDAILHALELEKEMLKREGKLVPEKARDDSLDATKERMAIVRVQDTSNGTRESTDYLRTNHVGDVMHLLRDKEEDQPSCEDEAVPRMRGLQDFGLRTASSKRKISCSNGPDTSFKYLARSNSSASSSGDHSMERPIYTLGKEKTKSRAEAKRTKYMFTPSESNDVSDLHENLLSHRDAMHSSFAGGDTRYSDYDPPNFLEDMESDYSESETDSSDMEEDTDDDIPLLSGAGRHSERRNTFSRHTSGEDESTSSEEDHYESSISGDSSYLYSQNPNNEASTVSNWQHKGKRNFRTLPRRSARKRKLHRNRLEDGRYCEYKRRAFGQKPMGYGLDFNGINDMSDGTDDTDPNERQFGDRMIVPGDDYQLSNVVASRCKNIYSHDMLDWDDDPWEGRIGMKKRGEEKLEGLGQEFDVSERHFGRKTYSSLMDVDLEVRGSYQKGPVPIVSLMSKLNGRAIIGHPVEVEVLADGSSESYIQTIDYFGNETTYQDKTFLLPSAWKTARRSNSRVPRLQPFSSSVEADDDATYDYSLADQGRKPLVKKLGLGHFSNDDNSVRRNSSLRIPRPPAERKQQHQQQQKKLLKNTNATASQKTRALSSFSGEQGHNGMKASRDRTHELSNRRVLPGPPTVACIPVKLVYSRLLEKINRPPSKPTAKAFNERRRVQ
UniProt Q9FMR9: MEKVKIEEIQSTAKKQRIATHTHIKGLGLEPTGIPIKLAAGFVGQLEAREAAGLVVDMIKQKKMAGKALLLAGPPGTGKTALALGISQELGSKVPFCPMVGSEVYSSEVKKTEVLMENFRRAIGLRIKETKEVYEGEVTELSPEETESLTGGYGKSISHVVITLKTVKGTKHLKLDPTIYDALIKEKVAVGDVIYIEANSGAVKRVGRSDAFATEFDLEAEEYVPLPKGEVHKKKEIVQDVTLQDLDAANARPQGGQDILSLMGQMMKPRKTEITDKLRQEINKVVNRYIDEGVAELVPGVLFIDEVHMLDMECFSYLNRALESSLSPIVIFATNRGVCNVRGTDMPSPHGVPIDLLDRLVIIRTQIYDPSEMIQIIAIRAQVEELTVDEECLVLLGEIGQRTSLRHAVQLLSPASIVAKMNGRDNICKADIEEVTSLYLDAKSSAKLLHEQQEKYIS

Read-outs that look alike come from different tables or passages of the source. These are yes or no findings as the source states them, for the method shown. A result given as binding can be weak or reduced; the word gives no strength. For part of these data: Where a sequence is shown, tags or fusion partners need not be part of it. For part of these data: Binding seen in cells or lysates may run through a third protein.

In the case of “PWO1 full-length, yeast two-hybrid fusion (from UniProt Q9M9N3)”, in experiment [1], the binding entry is listed as “binds”.

On to “Recombination UV B-like protein RUVBL1, yeast two-hybrid fusion (from UniProt Q9FMR9)”, for which, in experiment [1], the binding result was “binds”.

B1: Protection of telomeres 1a (POT1a), yeast two-hybrid fusion (protein, UniProt Q56Y52 1-467)
chain: MAKKRESPKLIKIKDAIKLINQQVSLIGIVLEQREPKQCRNNDWICTLRIIDDTYPSPGLTVNVFSKTLEQLPQIKNHDDMILFTRIKMQTFDSGERVNAACSRWVSSFALFEGVDFVCYQCSTNFHEEEALYKSAMDDLRKVFAGCSQVIKAMQSISYRTKPCSEVFSFLREIKIGKRFDLVCRILHADEDTSAVFVWDGTDAPPASILAKRSEEDKAFSSLSVHTLLSRDVLLSFPTVGTILRVHLSSHLFYRVKPGDWVKLYHLLCEVDRGSWVIKVTSSTKVHHLAQDDRLVEKIMRIYDKRLSSKLGHISFWCFPSPPGLTETDDNCAPFVTLMDIITFPKVTCKYRCIVRVVAAYPWQVEDFCSDENRRHHQVLLTLEDSTATLEAFLCNKDAEYFWGLGFQDTETLRKKRNWLLGIRESSNFVAPRNPPWIECCILSYYTNKADPWNTRLYRIFGTRLLH
For B1, the binding entry in experiment [2] and in experiment [3] was “binds” in each case.

B2: POT1a (hemagglutinin tag, 35S-labelled), in vitro translated (protein, UniProt Q56Y52 1-467)
chain: B1 chain
modifications: radioactively labelled using 35S-Met
In the case of B2, the binding result in experiment [4] and in experiment [5] was “binds” each time.

B3: TERT telomerase essential N-terminal fragment (TEN, 1-233 aa), yeast two-hybrid fusion (domain or fragment, UniProt Q9SPU7 1-233)
chain: MPRKPRHRVPEILWRLFGNRARNLNDAIVDLIPNRNIQPEQCRCRGQGCLGCSSDKPAFLLRSDDPIHYRKLLHRCFVVLHEQTPPLLDFSPTSWWSQREIVERIIEMMQSGCDCQNVICARYDKYDQSSPILELLTSSSWEFLLKRVGHDVMVYLLQQTSIFLPLLGKKHQQVSGPPLCIKHKRTLSVHENKRKRDDNVQPPTKRQWLSSAVDDCPKDDSATITPIVGEDVD
As for B3, the binding result in experiment [2] and in experiment [3] was “binds” in each case.

B4: TERT RNA interaction domain 1 fragment (RID1, 1-271 aa), yeast two-hybrid fusion (domain or fragment, UniProt Q9SPU7 1-271)
chain: MPRKPRHRVPEILWRLFGNRARNLNDAIVDLIPNRNIQPEQCRCRGQGCLGCSSDKPAFLLRSDDPIHYRKLLHRCFVVLHEQTPPLLDFSPTSWWSQREIVERIIEMMQSGCDCQNVICARYDKYDQSSPILELLTSSSWEFLLKRVGHDVMVYLLQQTSIFLPLLGKKHQQVSGPPLCIKHKRTLSVHENKRKRDDNVQPPTKRQWLSSAVDDCPKDDSATITPIVGEDVDQHREKKTTKRSRIYLKRRRKQRKVNFKKVDCNAPCITP
Consider B4, for which the binding result in experiment [2] and in experiment [3] was “binds” in each case.

B5: PWO2 N-terminal part (1-216 aa), yeast two-hybrid fusion (domain or fragment, UniProt P59278 1-216)
chain: MESNDDRNLEAINASVGRLVWVRRRNGSWWPGQTLVHDQVPDNSLVGPKVGTPIKLLGRDDVSVDWYILENSKTVKAFRCGEYDTCIEKAKASSSKKRSGKCTLREDAINNALKIENEHLAKEDDNLCNLSGEEDSKRCLSGKEDEDSGSSDAEETEDDELASAPEQLQSSISSQEMNNVGASKVQSKRRRTPNDSEDDGTEGVKRMRGLEDIGKE
B5: in experiment [3], the binding result is “binds”.

B6: EMBRYONIC FLOWER 2 (EMF2), yeast two-hybrid fusion (protein, UniProt Q8L6Y4 1-631)
chain: MPGIPLVSRETSSCSRSTEQMCHEDSRLRISEEEEIAAEESLAAYCKPVELYNIIQRRAIRNPLFLQRCLHYKIEAKHKRRIQMTVFLSGAIDAGVQTQKLFPLYILLARLVSPKPVAEYSAVYRFSRACILTGGLGVDGVSQAQANFLLPDMNRLALEAKSGSLAILFISFAGAQNSQFGIDSGKIHSGNIGGHCLWSKIPLQSLYASWQKSPNMDLGQRVDTVSLVEMQPCFIKLKSMSEEKCVSIQVPSNPLTSSSPQQVQVTISAEEVGSTEKSPYSSFSYNDISSSSLLQIIRLRTGNVVFNYRYYNNKLQKTEVTEDFSCPFCLVKCASFKGLRYHLPSTHDLLNFEFWVTEEFQAVNVSLKTETMISKVNEDDVDPKQQTFFFSSKKFRRRRQKSQVRSSRQGPHLGLGCEVLDKTDDAHSVRSEKSRIPPGKHYERIGGAESGQRVPPGTSPADVQSCGDPDYVQSIAGSTMLQFAKTRKISIERSDLRNRSLLQKRQFFHSHRAQPMALEQVLSDRDSEDEVDDDVADFEDRRMLDDFVDVTKDEKQMMHMWNSFVRKQRVLADGHIPWACEAFSRLHGPIMVRTPHLIWCWRVFMVKLWNHGLLDARTMNNCNTFLEQLQI
As for B6, the binding result in experiment [2] and in experiment [3] was “binds” in each case.

B7: EMF2 (hemagglutinin tag, 35S-labelled), in vitro translated (protein, UniProt Q8L6Y4 1-631)
chain: B6 chain
modifications: radioactively labelled using 35S-Met
As to B7, the binding result in experiment [4] and in experiment [5] was “binds” each time.

B8: VERNALIZATION 2 (VRN2), yeast two-hybrid fusion (protein, UniProt Q8W5B1 1-440)
chain: MCRQNCRAKSSPEEVISTDENLLIYCKPVRLYNIFHLRSLGNPSFLPRCLNYKIGAKRKRKSRSTGMVVFNYKDCNNTLQRTEVREDCSCPFCSMLCGSFKGLQFHLNSSHDLFEFEFKLLEEYQTVNVSVKLNSFIFEEEGSDDDKFEPFSLCSKPRKRRQRGGRNNTRRLKVCFLPLDSPSLANGTENGIALLNDGNRGLGYPEATELAGQFEMTSNIPPAIAHSSLDAGAKVILTTEAVVPATKTRKLSAERSEARSHLLLQKRQFYHSHRVQPMALEQVMSDRDSEDEVDDDVADFEDRQMLDDFVDVNKDEKQFMHLWNSFVRKQRVIADGHISWACEVFSRFYEKELHCYSSLFWCWRLFLIKLWNHGLVDSATINNCNTILENCRNTSVTNNNNNSVDHPSDSNTNNNNIVDHPNDIKNKNNVDNKDNNSRDK
For B8, the binding result in experiment [2] and in experiment [3] was “binds” in each case.

B9: VRN2 (hemagglutinin tag, 35S-labelled), in vitro translated (protein, UniProt Q8W5B1 1-440)
chain: B8 chain
modifications: radioactively labelled using 35S-Met
B9: the binding entry in experiment [4] and in experiment [5] was “binds” in each case.

B10: Protection of telomeres 1b (POT1b), yeast two-hybrid fusion (protein, UniProt Q6NKX5 1-454)
chain: MEEERRDDYKFLRIQDAFKALHLHVNLIGVIVELGFSNGSDCSCTLKIVDPWYSGSGLPVKFVARTIRDLPRVESIGDIILLSRVKIVLINRKITALCNETTSSSFALFNGKHSVDSIPYQSSPKFLMREQDKNFLSNLREWMITYKFEDGSCCFTSLKDIKEGECSNLSCQIVHISKVYKDRWYLFVWDGTEMPPCNILVKSERLPLCVEPEMLPTYMLRKFPTFGSVLRIIVDRVSEKQAIHCLQPGQHVKLLNLFFQVNMGLWNATFTPSTKMQYTMSREMEAFSPQRMCGEKFSPRWNPIARCISRSHSEITGVAHDDAPFVSLMDILTYHNVTAKFRCVVRFIQVYPRDVRKLRDINGNIKLVAILEDATARIHASLYADEGEKFFGCDESDEEALVKKLNRLLGGEEMEKVPRNPPWVQCCLFSFYKHKMDQWESRRFRIFDTWINAS
Consider B10, for which the binding result in experiment [2] and in experiment [3] was “binds” each time.
